In US20210246218A1:
Substitutions are numbered along the chain they refer to. Names and notes keep the numbering of the source. No constants are given. Whether binding was seen depends on the method and setting. Some binding calls cover weakened binding; strength is not graded here.

Amino acid sequences for entries named in this document (tags omitted). Residues count along the entry.
UniProt Q07011, residues 24-186: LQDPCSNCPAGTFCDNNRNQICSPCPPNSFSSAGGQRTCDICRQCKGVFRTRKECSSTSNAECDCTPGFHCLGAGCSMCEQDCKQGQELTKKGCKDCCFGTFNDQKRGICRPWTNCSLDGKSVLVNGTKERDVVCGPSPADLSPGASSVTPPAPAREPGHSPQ

B1: humanized anti-CD137 antibody clone 3715 (IgG4 S228P/kappa) (antibody, V domains shown)
VH: QVQLVQSGAEVVKPGASVKVSCKASGYTFAGFEMHWVRQAPGQGLGWMGAIDPKTGGTDYNQKFKDRVTMTADTSISTAYMELSRLRSDDTAVYYCTRDLGYFDVWGQGTLVTVSS
VL: DIQMTQSPSSLSASVGDRVTITCRASQDIRSNLNWYQQKPGGAVKLLIYYTSRLHSGVPSRFSGSGSGTDYTLTISSLQPEDFATYFCQQSEKLPRTFGGGTKVEIRR
B2: humanized anti-CD137 antibody clone 3716 (IgG4 S228P/kappa) (antibody, V domains shown)
VH: B1 VH
VL: B1 VL with V104L
B3: humanized anti-CD137 antibody clone 3717 (IgG4 S228P/kappa) (antibody, V domains shown)
VH: B1 VH with V20L, V37I, M48I, V68A, M70L
VL: B1 VL with G42K, V44P, Y71F, F87Y
B4: humanized anti-CD137 antibody clone 3718 (IgG4 S228P/kappa) (antibody, V domains shown)
VH: B1 VH with V20L, V37I, M48I, V68A, M70L
VL: B1 VL
B5: humanized anti-CD137 antibody clone 3719 (IgG4 S228P/kappa) (antibody, V domains shown)
VH: B1 VH with V20L, V37I, M48I, V68A, M70L
VL: B1 VL with V104L

The binders below were run against CD137 protein (UniProt Q07011) (assay: BLI (Octet Red 96)).
B1 was tested, and the binding was “binds”. B2 was tested, and the binding was “binds”. With B3 the binding was “binds”. In the case of B4, the binding is reported as “binds”. In the case of B5, the binding is reported as “binds”.
